Assay results from PubChem BioAssay AID330 (DTP/NCI, 2004).
The list shows only some results of the screen, not a fair sample: it is rich in T/C values a quarter to a half above the control, in often repeated tests (any T/C) and in doses without a T/C. Other doses and runs of a compound stand elsewhere. T/C gives the treated animals as a percentage of the vehicle group. Some entries give survivors of the animals treated and no T/C: the source holds a T/C of zero for them, seemingly a mark for toxic or unscored doses. Some survivor counts are full or nearly so, which does not show that the dose was tolerated: survival well below the control is almost never listed, so the zero probably covers shortened survival too. Counts of survivors are from the toxicity check (mostly the fifth day) where no day follows; animals may have died later. Schedule codes are those of the source, taken here to give the interval after Q, in days (D) or hours (H), and the number of doses after X. Some entries were tested several times; the values are given in rising order. For survival time, the PubChem record calls one and a half times the control and up active, and a quarter to a half above the control has no call in these data; cut-offs in other NCI protocols can differ. Some T/C values carry the count of animals alive at the toxicity check (mostly the fifth day); where none is given, no animal had died by that day. Counts like (3×) give the number of equal values in this list. Some schedules carry Z or #; the key to these is not given.

Tested on: P388 leukemia ip, CD2F1 mice, survival T/C
Assay: NCI In Vivo Anticancer Drug Screen. Data for tumor model P388 Leukemia (intraperitoneal) in CD2F1 (CDF1) mice
Conditions: T/C endpoint: median survival time, higher T/C = longer survival

SMILES: COc1cccc2c1C(=O)c1c(O)c3c(c(O)c1C2=O)C[C@@](O)(C(=O)CO)C[C@@H]3OC1CC(N)C(O)C(C)O1 (some centres not stated)
- T/C (dose: 6.7 mg/kg/injection, schedule: Q01DX001 (ip), vehicle: saline, evaluated on day 23): 171 % of control
- T/C (dose: 6.7 mg/kg/injection, schedule: Q01DX001 (ip), vehicle: saline, evaluated on day 30): 98, 141 (2×), 144, 154, 162, 168 (2×), 169, 170, 171, 173, 177 (2×), 180, 181, 182, 183 (3×), 184, 185, 186 (2×), 187 (2×), 188, 189, 190, 194, 196 (2×), 197, 198, 200, 201, 203 (2×), 205 (3×), 208, 214, 215 (2×), 216, 217 (2×), 218 (2×), 228, 232, 233, 243, 254, 284 % of control
- T/C (dose: 6.7 mg/kg/injection, schedule: Q01DX001 (ip), vehicle: saline, evaluated on day 45): 156, 166, 188, 189, 200, 202, 240, 247, 252 % of control
- T/C (dose: 6.7 mg/kg/injection, schedule: Q01DX001 (ip), vehicle: saline, evaluated on day 46): 191 % of control
- T/C (dose: 6.7 mg/kg/injection, schedule: Q01DX001 (ip), vehicle: saline, evaluated on day 47): 186 and 200 % of control
- T/C (dose: 6.7 mg/kg/injection, schedule: Q01DX001 (ip), vehicle: saline, evaluated on day 56): 177 % of control
- T/C (dose: 6.7 mg/kg/injection, schedule: Q01DX001 (ip), vehicle: saline, evaluated on day 60): 169, 180, 183, 198, 198 [9 of 10 alive], 216, 271, 275, 289 % of control
- survivor count (dose: 6.7 mg/kg/injection, schedule: Q01DX001 (ip), vehicle: saline): 0 of 6
- T/C (dose: 7.5 mg/kg/injection, schedule: Q04DX003 (ip), vehicle: saline, evaluated on day 45): 119, 138, 143, 162, 184, 221 [7 of 8 alive], 227, 240, 247, 248 % of control
- T/C (dose: 7.5 mg/kg/injection, schedule: Q04DX003 (ip), vehicle: saline, evaluated on day 60): 382 % of control
- survivor count (dose: 7.5 mg/kg/injection, schedule: Q04DX003 (ip), vehicle: saline): 8 of 8
- T/C (dose: 8.0 mg/kg/injection, schedule: Q01DX001 (ip), vehicle: Klucel (hydroxypropylcellulose) (HPC)): 142 % of control
- T/C (dose: 8.0 mg/kg/injection, schedule: Q01DX001 (ip), vehicle: saline with Tween-80): 149 % of control
- T/C (dose: 8.0 mg/kg/injection, schedule: Q01DX001 (ip), vehicle: saline, evaluated on day 3): 196 % of control
- T/C (dose: 8.0 mg/kg/injection, schedule: Q01DX001 (ip), vehicle: saline, evaluated on day 5): 92, 97, 125, 132, 138, 148, 150, 158 % of control
- T/C (dose: 8.0 mg/kg/injection, schedule: Q01DX001 (ip), vehicle: saline, evaluated on day 6): 216 % of control
- T/C (dose: 8.0 mg/kg/injection, schedule: Q01DX001 (ip), vehicle: saline, evaluated on day 7): 166, 176, 197, 200 % of control
- T/C (dose: 8.0 mg/kg/injection, schedule: Q01DX001 (ip), vehicle: saline, evaluated on day 9): 150 and 157 % of control
- T/C (dose: 8.0 mg/kg/injection, schedule: Q01DX001 (ip), vehicle: saline, evaluated on day 30): 167, 200, 235 % of control
- T/C (dose: 8.0 mg/kg/injection, schedule: Q01DX001 (ip), vehicle: saline, evaluated on day 35): 181 % of control
- T/C (dose: 8.0 mg/kg/injection, schedule: Q01DX001 (ip), vehicle: saline, evaluated on day 45): 142 % of control
- T/C (dose: 8.0 mg/kg/injection, schedule: Q01DX001 (ip), vehicle: saline, evaluated on day 60): 137 and 177 % of control
- T/C (dose: 8.0 mg/kg/injection, schedule: Q01DX001 (iv), vehicle: saline): 144 % of control
- survivor count (dose: 8.0 mg/kg/injection, schedule: Q01DX005 (ip), vehicle: water): 10 of 10 and 4 of 4
- T/C (dose: 8.0 mg/kg/injection, schedule: Q01DX009 (ip), vehicle: water, evaluated on day 5): 66 % of control
- T/C (dose: 8.0 mg/kg/injection, schedule: Q01DX009 (ip), vehicle: water, evaluated on day 30): 95 and 103 % of control
- survivor count (dose: 8.0 mg/kg/injection, schedule: Q01DX009 (ip), vehicle: water): 1 of 6, 3 of 6, 4 of 6, 6 of 6
- T/C (dose: 8.0 mg/kg/injection, schedule: Q04DX003 (ip), vehicle: saline, evaluated on day 5): 83, 113, 115, 163 % of control
- T/C (dose: 8.0 mg/kg/injection, schedule: Q04DX003 (ip), vehicle: saline, evaluated on day 8): 185 % of control
- T/C (dose: 8.0 mg/kg/injection, schedule: Q04DX003 (ip), vehicle: saline, evaluated on day 9): 216 % of control
- T/C (dose: 8.0 mg/kg/injection, schedule: Q04DX003 (ip), vehicle: saline, evaluated on day 30): 127, 130, 139 [5 of 6 alive], 142, 143, 156, 157, 159, 161, 166, 169, 173, 174 (2×), 178, 181, 190, 196, 274 % of control
- T/C (dose: 8.0 mg/kg/injection, schedule: Q04DX003 (ip), vehicle: saline, evaluated on day 45): 130 [7 of 8 alive], 159, 215 % of control
- T/C (dose: 8.0 mg/kg/injection, schedule: Q04DX003 (ip), vehicle: saline, evaluated on day 60): 113 [7 of 8 alive] and 118 % of control
- T/C (dose: 8.0 mg/kg/injection, schedule: Q04DX003 (ip), vehicle: water, evaluated on day 30, list 1 of 2): 111, 115, 118, 121, 133, 137, 138, 140, 148, 155 (2×), 157, 161, 163 (3×), 164, 166, 168 (2×), 171, 174, 178, 180, 181, 182, 185, 186, 192 (2×), 200, 201, 203, 208, 215 % of control
- T/C (dose: 8.0 mg/kg/injection, schedule: Q04DX003 (ip), vehicle: water, evaluated on day 30, list 2 of 2): 105, 113, 116 [5 of 6 alive on day 9], 118, 129, 136, 137, 138, 145, 152, 155 (2×), 158, 162, 163 (3×), 166, 167, 168, 169, 173, 175, 178, 180, 182 [5 of 6 alive], 184, 185, 188, 192, 198, 200, 202, 203, 209 % of control
- T/C (dose: 8.0 mg/kg/injection, schedule: Q04DX003 (ip), vehicle: water, evaluated on day 35): 125, 142, 146, 151, 152, 154 [5 of 6 alive on day 9], 158, 166, 168, 170, 171, 177, 185, 190 % of control
- T/C (dose: 8.0 mg/kg/injection, schedule: Q04DX003 (ip), vehicle: water, evaluated on day 40): 133, 161, 163, 173, 197 % of control
- T/C (dose: 8.0 mg/kg/injection, schedule: Q04DX003 (ip), vehicle: water, evaluated on day 45): 87, 99, 111, 124, 130 [5 of 6 alive on day 9], 140 (2×), 145, 150 (2×), 151, 152, 154, 160 (4×), 161, 162 (2×), 163 (2×), 164, 165 (2×), 167, 168, 169 [2 of 3 alive], 170, 171 (3×), 171 [5 of 6 alive on day 9], 173, 174, 175, 181, 182, 187, 188, 189, 190 (2×), 192 (2×), 193, 194, 194 [5 of 6 alive], 197, 225 (2×), 301 % of control
- T/C (dose: 8.0 mg/kg/injection, schedule: Q04DX003 (ip), vehicle: water, evaluated on day 46): 95 % of control
- T/C (dose: 8.0 mg/kg/injection, schedule: Q04DX003 (ip), vehicle: water, evaluated on day 50): 130, 133, 150, 166, 192 % of control
- T/C (dose: 8.0 mg/kg/injection, schedule: Q04DX003 (ip), vehicle: water, evaluated on day 60): 120 and 165 % of control
- survivor count (dose: 8.0 mg/kg/injection, schedule: Q04DX003 (ip), vehicle: water): 2 of 3, 4 of 6, 6 of 6
- T/C (dose: 8.0 mg/kg/injection, schedule: Q## X001 (ip), vehicle: saline): 92, 97, 125, 132, 148, 150, 157 % of control
- T/C (dose: 8.44 mg/kg/injection, schedule: Q01DX001 (iv), vehicle: saline): 127 and 137 % of control
- T/C (dose: 9.0 mg/kg/injection, schedule: Q04DX003 (ip), vehicle: saline, evaluated on day 45): 336 % of control
- T/C (dose: 9.0 mg/kg/injection, schedule: Q04DX003 (ip), vehicle: saline, evaluated on day 60): 166, 174, 255, 271 % of control
- T/C (dose: 10.0 mg/kg/injection, schedule: Q01DX001 (ip), vehicle: saline, evaluated on day 5): 128 [8 of 9 alive], 162, 266, 267, 299 % of control
- T/C (dose: 10.0 mg/kg/injection, schedule: Q01DX001 (ip), vehicle: saline, evaluated on day 7): 133 and 180 % of control
- T/C (dose: 10.0 mg/kg/injection, schedule: Q01DX001 (ip), vehicle: saline, evaluated on day 9): 151 and 170 % of control
- T/C (dose: 10.0 mg/kg/injection, schedule: Q01DX001 (ip), vehicle: saline, evaluated on day 11): 139 % of control
- T/C (dose: 10.0 mg/kg/injection, schedule: Q01DX001 (ip), vehicle: saline, evaluated on day 20): 192 % of control
- T/C (dose: 10.0 mg/kg/injection, schedule: Q01DX001 (ip), vehicle: saline, evaluated on day 23): 199 % of control
